In publication PMC10217546, “Antioxidant Activities of Dihydromyricetin Derivatives with Different Acyl Donor Chain Lengths Synthetized by Lipozyme TL IM” (Foods, 2023):

Assay: Antioxidant activity in sunflower oil, induction time by Rancimat
Settings: sunflower oil with 200 mg/kg antioxidant, 120 °C, air flow 20 L/h

| SMILES | induction time (Rancimat) [min] |
| --- | --- |
| CC(C)(C)c1cc(O)ccc1O [TBHQ, tert-butylhydroquinone, reference compound] | 6.22 |
| O=C1c2c(O)cc(O)cc2O[C@H](c2cc(O)c(O)c(O)c2)[C@H]1O [DHM, Dihydromyricetin] | 5.27 |
| CCCCCCCCCCCC(=O)OC1C(=O)c2c(O)cc(O)cc2OC1c1cc(O)c(O)c(O)c1 (stereo not shown) [C12-DHM, 3-O-lauroyl-DHM] | 2.71 |
| CCCCCCCC(=O)OC1C(=O)c2c(O)cc(O)cc2OC1c1cc(O)c(O)c(O)c1 (stereo not shown) [C8-DHM, 3-O-octanoyl-DHM] | 4.60 |
| CC(=O)OC1C(=O)c2c(O)cc(O)cc2OC1c1cc(O)c(O)c(O)c1 (stereo not shown) [C2-DHM, 3-O-acetyl-DHM] | 4.25 |
| CCCC(=O)OC1C(=O)c2c(O)cc(O)cc2OC1c1cc(O)c(O)c(O)c1 (stereo not shown) [C4-DHM, 3-O-butyryl-DHM] | 4.27 |
| CCCCCC(=O)OC1C(=O)c2c(O)cc(O)cc2OC1c1cc(O)c(O)c(O)c1 (stereo not shown) [C6-DHM, 3-O-hexanoyl-DHM] | 4.47 |
